{"source": "PubChem BioAssay AID602196 | INSERM, 2012", "aim": "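Knock-downs that protect lung cancer cells from cisplatin or sensitise them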", "system": "human A549 lung cancer cells", "reagents": "siRNA pair against human genes", "duration": "48 h transfection before cisplatin; time from cisplatin to read-out not stated", "treatment": "cisplatin at a dose killing half of control-siRNA cells; exact dose and duration not given", "read-out": "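Shift in cisplatin death relative to control siRNA, from -50 (all cells die) to +50 (no cells die); siRNAs harmful on their own scored 0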", "direction": "two-siRNA summed score (-2 to +2): higher = both siRNAs protect from cisplatin killing; -2 means both sensitise; mean protection from cisplatin (shift in death): higher = protection from cisplatin killing", "rule for the call": "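siRNAs harmful alone (LDH or WST-1) get 0; others get +1 for less and -1 for more cisplatin killing; genes are active when the two siRNAs give the same sign, summing to ±2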", "calls": "active = both siRNAs shift cisplatin killing the same way; inactive = no consistent shift, or siRNA harmful alone", "note": "The whole screen tested about 23,000 reagents; this is a random part of them. 455 of all reagents (2%) count as active. 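Active includes both protection and sensitisation; some change values fall well beyond the stated -50 to +50 range.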 Entries without a mark were called inactive. Not all columns of the deposit are shown. The record does not give: the amount of reagent."}
{"target gene": "RPUSD1", "PubChem SID": "SID131508266", "two-siRNA summed score (-2 to +2)": 0, "mean protection from cisplatin (shift in death) (%)": 0.8}
{"target gene": "KLF8", "PubChem SID": "SID131523046", "two-siRNA summed score (-2 to +2)": "2 (active)", "mean protection from cisplatin (shift in death) (%)": 17.8}
{"target gene": "MPHOSPH8", "PubChem SID": "SID131507678", "two-siRNA summed score (-2 to +2)": 0, "mean protection from cisplatin (shift in death) (%)": 0.2}
{"target gene": "ANK1", "PubChem SID": "SID131520089", "two-siRNA summed score (-2 to +2)": 1, "mean protection from cisplatin (shift in death) (%)": 8.7}
{"target gene": "BMAL1", "PubChem SID": "SID131517956", "two-siRNA summed score (-2 to +2)": 0, "mean protection from cisplatin (shift in death) (%)": 15.6}
{"target gene": "KIFBP", "PubChem SID": "SID131515836", "two-siRNA summed score (-2 to +2)": 0, "mean protection from cisplatin (shift in death) (%)": 9.8}
{"target gene": "MSI1", "PubChem SID": "SID131504270", "two-siRNA summed score (-2 to +2)": 0, "mean protection from cisplatin (shift in death) (%)": -5.9}
{"target gene": "GOLGIN-67", "PubChem SID": "SID131518083", "two-siRNA summed score (-2 to +2)": 0, "mean protection from cisplatin (shift in death) (%)": 16.4}
{"target gene": "CHCHD10", "PubChem SID": "SID131518774", "two-siRNA summed score (-2 to +2)": 0, "mean protection from cisplatin (shift in death) (%)": 26.8}
{"target gene": "DLEC1", "PubChem SID": "SID131512154", "two-siRNA summed score (-2 to +2)": 0, "mean protection from cisplatin (shift in death) (%)": 5.2}
{"target gene": "LOC440317", "PubChem SID": "SID131504783", "two-siRNA summed score (-2 to +2)": 0, "mean protection from cisplatin (shift in death) (%)": -4.5}
{"target gene": "SSX9P", "PubChem SID": "SID131505690", "two-siRNA summed score (-2 to +2)": 0, "mean protection from cisplatin (shift in death) (%)": -2.7}

Records above whose target name starts with M or m:
{"target gene": "MPHOSPH8", "PubChem SID": "SID131507678", "two-siRNA summed score (-2 to +2)": 0, "mean protection from cisplatin (shift in death) (%)": 0.2}
{"target gene": "MSI1", "PubChem SID": "SID131504270", "two-siRNA summed score (-2 to +2)": 0, "mean protection from cisplatin (shift in death) (%)": -5.9}
